According to PubChem BioAssay (NCATS):
Values joined by “and” are separate entries in the source; they are usually repeats but may differ in a detail not shown here. Equal values may be shown once. The inconclusive results got no clear call from the source; some entries with a clear call stand among them for comparison. For some assays here: A potency beside an inconclusive call is a rough fit, not a confirmed value. Active and inactive are the calls of the source. Calls follow the shape of the dose curve; as a rule, active = well fitted curve in the direction sought with a large enough effect; inconclusive = small, poorly fitted or top-dose-only effect, or another doubt; inactive = no such curve, though single readings can be large; an effect the other way counts as inactive or inconclusive.

Legend:
[1] = Cell Proliferation Assay against the TMD8 Cell Line (Caspase readout at 16 hrs) (AID 651712); details: TMD8 lymphoma cells, caspase activation luminescence; caspase activation: at 46.1 µM (top of the series); also: potency is read from the fitted curve at half-maximal effect
Procedure, shortened: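 TMD8 cells in RPMI with 5% FBS were treated with compound for 16 h at 37 C, then caspase 3/7 activation was read by Caspase-Glo luminescence. Percent activity was scaled to DMSO (0%) and 9.2 uM bortezomib final (100%).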

[2] = Cell Proliferation Assay against the TMD8 Cell Line (Caspase readout at 8 hrs) (AID 651713); details: TMD8 lymphoma cells, caspase activation luminescence; caspase activation: at 46.1 µM (top of the series); also: potency is read from the fitted curve at half-maximal effect
Procedure, shortened: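 TMD8 cells (500/well) in phenol red-free RPMI with 5% FBS were treated with compounds for 8 h at 37C, 5% CO2. Caspase-Glo 3/7 luminescence was read after 15 min at room temperature and normalised to DMSO (0%) and 9.2 uM bortezomib (100%).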

[3] = Identifying Small Molecule Inhibitors of Pancreatic Cancer Stem Cells (A2780, Spheroid) (AID 1259357); details: Potency: A2780 spheroid viability; series mostly up to 46.1 µM;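 also: compound exposure lasted 48 h before the ATP luminescence read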; also: potency is read from the fitted curve at half-maximal effect
Procedure, shortened: (§1)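 Pre-formed 14-day tumor spheroids or adherent cells dosed and incubated 48 h, 37C, 5% CO2. Viability assessed by CellTiter-Glo.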

[4] = Identifying Small Molecule Inhibitors of Pancreatic Cancer Stem Cells (SN12C, Spheroid) (AID 1259360); details: Potency: SN12C spheroid viability; also: potency is read from the fitted curve at half-maximal effect
Procedure, shortened: as §1

[5] = Identifying Small Molecule Inhibitors of Pancreatic Cancer Stem Cells (A278, Adherent) (AID 1259361); also: nearly all actives have a fitted effect of over 35% in size
Procedure, shortened: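 Monolayer and spheroid cultures are compared. Spheroids form over 14 days in stem cell medium on hydrogel-coated low-attachment plates, then are exposed to compound for 48 h before CellTiter-Glo luminescence.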

[6] = P-glycoprotein substrates identified in KB-8-5-11 adenocarcinoma cell line, qHTS therapeutic library screen (AID 1346987); also: potency is read from the fitted curve at half-maximal effect; nearly all actives have a fitted effect of over 65% in size
Procedure, shortened: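 KB-8-5-11: colchicine-selected sub-line of KB-3-1 over-expressing P-gp; assay medium lacked colchicine. 72 h drug exposure at 37 degree C, CellTiter-Glo.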

[7] = qHTS of pediatric cancer cell lines to identify multiple opportunities for drug repurposing: Primary screen for BT-12 cells (AID 1347101); also: potency is read from the fitted curve at half-maximal effect; nearly all actives have a fitted effect of over 25% in size
Procedure, shortened: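 Cells (500-1,000/well) rested 5 h, then received compounds for 48 h; metabolically active cells were measured by CellTiter-Glo luminescence. Final concentrations spanned up to 46 µM (MIPE, 11-point) or 0.59 nM-46 µM (NPC, 8-point) in primary screens, 11-point in follow-ups.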

[8] = qHTS of pediatric cancer cell lines to identify multiple opportunities for drug repurposing: Primary screen for Rh41 cells (AID 1347108); also: nearly all actives have a fitted effect of over 70% in size; also: potency is read from the fitted curve at half-maximal effect
Procedure, shortened: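 Quantitative HTS format: each compound titrated (MIPE 11 points from 0.78 nM, NPC 8 points from 0.59 nM) onto cells plated 5 hours earlier. After 48 h at 37 degrees C, CellTiter-Glo luminescence was recorded.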

[9] = Identifying Small Molecule Inhibitors of Pancreatic Cancer Stem Cells (Panc1, Adherent) (AID 1259362); details: Potency: viability unless noted; series mostly up to 46.1 µM; also: potency is read from the fitted curve at half-maximal effect
Procedure, shortened: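 Luminescent ATP readout (CellTiter-Glo) quantifies surviving cells after a 48 h drug incubation. Normalization uses DMSO wells as no inhibition and media-only wells as full inhibition; bortezomib served as positive control.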

[10] = qHTS of pediatric cancer cell lines to identify multiple opportunities for drug repurposing: Primary screen for Rh18 cells (AID 1347102); also: potency is read from the fitted curve at half-maximal effect; nearly all actives have a fitted effect of over 65% in size
Procedure, shortened: (§2)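 Viability after 48 h compound treatment at 37C, 500-1,000 cells/well, read as ATP luminescence with CellTiter-Glo. Primary screens used 11-point (MIPE, 0.78 nM-46 µM) or 8-point (NPC, 0.59 nM-46 µM) final concentrations; follow-up screens used 11-point dilutions.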

[11] = qHTS of pediatric cancer cell lines to identify multiple opportunities for drug repurposing: Primary screen for Rh30 cells (AID 1347107); also: potency is read from the fitted curve at half-maximal effect; nearly all actives have a fitted effect of over 75% in size
Procedure, shortened: as §2

[12] = Quantitative High-Throughput drug screen in 47 multiple myeloma cell lines against the NCATS MIPE library collection: JIM1_ECACC cell viability assay (AID 1918964; also: potency is read from the fitted curve at half-maximal effect)
Procedure, shortened: (§3)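 Luminescent ATP measurement with CellTiter-Glo gives viability, scaled between DMSO-only wells (100%) and media-only wells (0%). Cells, 500 per well, faced library compounds for 48 hours at 37C.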

[13] = Quantitative High-Throughput drug screen in 47 multiple myeloma cell lines against the NCATS MIPE library collection: KMS20_JCRB cell viability assay (AID 1918973); details: CellTiter-Glo ATP, 48 h; series mostly up to 45.8 µM; also: potency is read from the fitted curve at half-maximal effect; nearly all actives have a fitted effect of over 45% in size
Procedure, shortened: as §3

[14] = Quantitative High-Throughput drug screen in 47 multiple myeloma cell lines against the NCATS MIPE library collection: KMS21BM_JCRB cell viability assay (AID 1918974); details: ATP luminescence, 48 h; viability: at 45.8 µM (top of the series); also: potency is read from the fitted curve at half-maximal effect
Procedure, shortened: as §3

[15] = Quantitative High-Throughput drug screen in 47 multiple myeloma cell lines against the NCATS MIPE library collection: MOLP8_DSMZ cell viability assay (AID 1918977); details: MOLP8 myeloma viability, CellTiter-Glo ATP luminescence, 48 h; viability (% of control): at 45.8 µM (top of the series); also: potency is read from the fitted curve at half-maximal effect; nearly all actives have a fitted effect of over 45% in size
Procedure, shortened: (§4)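 Viability after 48 h drug exposure was measured as ATP-dependent luminescence. Cells, 500 per well, sat at 37 °C under 5% CO2; DMSO wells set 100%, media-only wells 0%.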

[16] = Quantitative High-Throughput drug screen in 47 multiple myeloma cell lines against the NCATS MIPE library collection: LP1_DSMZ cell viability assay (AID 1918982); also: potency is read from the fitted curve at half-maximal effect; nearly all actives have a fitted effect of over 35% in size
Procedure, shortened: as §4

[17] = Quantitative High-Throughput drug screen in 47 multiple myeloma cell lines against the NCATS MIPE library collection: L363_DSMZ cell viability assay (AID 1918984); details: L363 myeloma viability, CellTiter-Glo ATP luminescence, 48 h; viability (% of control): at 45.8 µM (top of the series); also: potency is read from the fitted curve at half-maximal effect; nearly all actives have a fitted effect of over 40% in size
Procedure, shortened: as §4

CRL-7250 = normal cell line; experiment: Cytotoxic Profiling of Annotated Libraries Using Quantitative High-Throughput Screening (AID 1296008); details: Five cell lines viability, CellTiter-Glo ATP luminescence, 48-72 h; max response: stronger effect = lower value; also: potency is read from the fitted curve at half-maximal effect; nearly all actives have a fitted effect of over 60% in size
Procedure, shortened: (§5)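 Cells exposed to compounds for 48 or 72 hr at 37 degrees Celsius. Viability read as ATP-coupled luminescence with CellTiter-Glo after 10 min at room temperature.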

HEK293 = experiment: as above; details: Five cell lines viability, CellTiter-Glo ATP luminescence, 48-72 h; max response: stronger effect = lower value
Procedure, shortened: as §5

With `Nc1ccn([C@@H]2O[C@H](CO)[C@@H](O)C2(F)F)c(=O)n1` the Potency [1] was active: 0.0382 µM, the Potency [2] was inconclusive: 4.81 µM [activator, partial curve, poor fit] and the Potency [3] was active: 0.481 µM. For the same compound, the Potency [4] was inconclusive: 38.2 µM [cytotoxic, partial curve], the IC50 (viability decrease) [5] was inconclusive: 0.0043 µM [cytotoxic, full curve] and the Potency [6] was inconclusive: 0.0731 µM. The Potency [7] was inconclusive: 0.0617 µM [cytotoxic, full curve] and the Potency [8] was “inactive”.
For `CCOC(=O)C1=C[C@@]2(CC)CCCN3CCc4c(n1c1ccccc41)[C@H]32`, the Potency [1] was “inactive”, the Potency [3] was inconclusive: 1.9 µM [rising, partial curve, poor fit] and the IC50 (viability decrease) [5] was “inactive”. The Potency [9] was inconclusive: 0.0673 µM [rising, full curve].
In the case of `Nc1cc(C(F)(F)F)c(-c2cc(N3CCOCC3)nc(N3CCOCC3)n2)cn1`, the Potency [1] is reported as active: 2.09 µM, the Potency [2] is reported as active: 20.9 µM and the Potency [3] is reported as active: 1.48 µM. The Potency [4] was inconclusive: 1.48 µM [cytotoxic, full curve], the Potency [9] was active: 1.87 µM and the Potency [7] was active: 1.22 µM. For the same compound, the Potency [10] was active: 0.59 µM, the Potency [11] was active: 11.8 µM and the Potency [8] was active: 1.18 µM. The Potency [12] was active: 0.0469 µM, the Potency [13] was active: 1.18 µM and the Potency [14] was active: 0.418 µM. The Potency [15] was active: 1.05 µM, the Potency [16] was inconclusive: 0.418 µM [cytotoxic, full curve] and the Potency [17] was active: 0.209 µM. The Potency (CRL-7250) was inconclusive: 833 nM [inhibitor, full curve, poor fit] and active: 2.06 µM and the Potency (HEK293) was active: 935 nM and active: 2.31 µM.
For `CCC1(Cc2ccc(N)cc2)CCC(=O)NC1=O` (stereo not given), the Potency [1] was “inactive”, the Potency [3] was “inactive” and the IC50 (viability decrease) [5] was “inactive”.
In the case of `CC(NC(=O)Cc1cc(F)cc(F)c1)C(=O)NC(C(=O)OC(C)(C)C)c1ccccc1` (stereo not given), the Potency [3] is reported as inconclusive: 0.003 µM [rising, full curve, poor fit], the Potency [4] is reported as inconclusive: 0.0033 µM [rising, full curve, poor fit] and the IC50 (viability decrease) [5] is reported as “inactive”.
With `COC(=O)[C@]12CCC(C)(C)C[C@@H]1[C@@H]1C(=O)C=C3[C@@]4(C)C=C(C#N)C(=O)C(C)(C)[C@@H]4CC[C@@]3(C)[C@]1(C)CC2` the Potency [3] was active: 1.32 µM, the Potency [9] was active: 2.96 µM and the Potency [10] was active: 0.935 µM. The Potency [11] was active: 1.48 µM, the Potency [8] was active: 1.18 µM and the Potency [13] was active: 0.296 µM. For the same compound, the Potency [14] was active: 0.0743 µM, the Potency [15] was active: 0.209 µM and the Potency [17] was active: 0.526 µM. For the same compound, the Potency (CRL-7250) was active: 4.69 µM and the Potency (HEK293) was active: 2.96 µM.
For `COc1cc(O)c2c(c1)C1OC1C[C@H](O)[C@H](O)C(=O)C=CC[C@H](C)OC2=O` (stereo not given in full), the Potency [6] was inconclusive: 37.2 µM [inhibitor, single point], the Potency [11] was inconclusive: 14.8 µM [cytotoxic, partial curve] and the Potency [8] was active: 11.8 µM. For the same compound, the Potency [12] was active: 2.96 µM, the Potency [14] was inconclusive: 1.66 µM [cytotoxic, full curve, poor fit] and the Potency [15] was active: 0.418 µM. The Potency [16] was active: 5.26 µM, the Potency (CRL-7250) was active: 26.4 µM and the Potency (HEK293) was inconclusive: 37.2 µM [inhibitor, single point].
For `C=C(C)C(=O)O[C@H]1C[C@@](C)(O)C2(O)CCC(C)(/C=C3/OC(=O)C(COC)=C31)O2` (stereo not given in full), the Potency (CRL-7250) was inconclusive: 11.4 µM [inhibitor, single point] and the Potency (HEK293) was active: 3.21 µM.
With `CO[C@@H]1[C@@H](OC)[C@H](C)[C@@](O)(CC(=O)O)O[C@H]1[C@H](C)[C@H]1O[C@@]2(CC[C@@](C)([C@H]3CC[C@@](C)([C@@H]4O[C@@H]([C@H]5O[C@](C)(O)[C@H](C)C[C@@H]5C)C[C@@H]4OC4C[C@H](OC)[C@@H](OC)[C@H](C)O4)O3)O2)C[C@H](O)[C@H]1C` (stereo not given in full) the Potency [6] was active: 8.2 µM, the Potency [7] was active: 0.347 µM and the Potency [10] was active: 3.76 µM. The Potency [8] was active: 4.22 µM, the Potency (CRL-7250) was active: 0.944 µM and the Potency (HEK293) was active: 0.237 µM.
With `CC(Oc1cc(-n2cnc3ccc(CN4CCN(C)CC4)cc32)sc1C(N)=O)c1ccccc1C(F)(F)F` (stereo not given) the Potency (CRL-7250) was inconclusive: 29.1 µM [inhibitor, single point] and the Potency (HEK293) was active: 1.3 µM.
